Laboratory results from the GenesisPotency data set.
Out of some 390,000 compounds screened, about 910 (0.23%) were called active. Not shown: some 5% with an inconclusive outcome. Calls come from the whole dose curve; as a rule, active = well fitted inhibition curve with a large enough effect; inconclusive = small, poorly fitted or top-dose-only effect; inactive = no such curve, though single readings can be large or run the other way. The list shows a part of the results.

target: T1, Ubiquitin carboxyl-terminal hydrolase 1, Homo sapiens (UniProt O94782); test: Inhibitors of USP1/UAF1: Primary Screen
T1 sequence (whole entry): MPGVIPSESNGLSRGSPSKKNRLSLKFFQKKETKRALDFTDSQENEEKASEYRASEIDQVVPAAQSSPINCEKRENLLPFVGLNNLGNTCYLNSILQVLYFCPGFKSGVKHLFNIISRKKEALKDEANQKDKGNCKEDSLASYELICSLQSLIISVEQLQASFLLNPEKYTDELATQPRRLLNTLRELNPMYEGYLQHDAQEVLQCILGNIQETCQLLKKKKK

Row | SMILES | outcome
1 | COc1cc(/C=C2\S/C(=N/S(=O)(=O)c3ccccc3)NC2=O)c([N+](=O)[O-])cc1OC | inactive
